In US20190071514A1, “ANTI-CD39 ANTIBODIES” (INNATE PHARMA, priority 2016, published 2019) one finds binding data, which are given here for seven molecules.

Where a chain is given by its changes, count along the chain named. Names may count otherwise. These are yes or no findings as the source states them, for the method shown. Binding calls can cover weak binding; strength is not graded here.

B1: mAb3 (antibody, human IgG1, V domains shown)
VH: QVQLVQSGSELKKPGASVKVSCKASGYTFTHYGMNWVRQAPGKGLKWMGWINTYTGEPTYADDFKGRFVFSLDTSVSTAYLQISSLKAEDTAVYYCARRRYEGNYVFYYFDYWGQGTTVTVSS
VL: DIQMTQSPSSLSASVGDRVTITCRASENIYSYFSWYQQKPGKAPKLLIYTAKTLAEGVPSRFSGSGSGTDFTLTISSLQPEDFATYYCQHHYVTPYTFGGGTKVEIK
notes: Produced as Fc silent recombinant human IgG1 with heavy chain N297Q (Kabat EU numbering) and huCk constant domain; also called anti-CD39 antibody mAb3
B2: mAb2 (antibody, human IgG1, V domains shown)
VH: B1 VH with K43Q
VL: B1 VL
notes: Produced as Fc silent recombinant human IgG1 with heavy chain N297Q (Kabat EU numbering) and huCk constant domain; also called anti-CD39 antibody mAb2
B3: mAb7 (antibody, human IgG1, V domains shown)
VH: B1 VH with V2I, T74A
VL: B1 VL with I48V
notes: Produced as Fc silent recombinant human IgG1 with heavy chain N297Q (Kabat EU numbering) and huCk constant domain; also called anti-CD39 antibody mAb7
B4: mAb4 (antibody, human IgG1, V domains shown)
VH: B1 VH with V2I, T74A
VL: B1 VL
notes: Produced as Fc silent recombinant human IgG1 with heavy chain N297Q (Kabat EU numbering) and huCk constant domain; also called anti-CD39 antibody mAb4
B5: mAb5 (antibody, human IgG1, V domains shown)
VH: B1 VH with K43Q
VL: B1 VL with I48V
notes: Produced as Fc silent recombinant human IgG1 with heavy chain N297Q (Kabat EU numbering) and huCk constant domain; also called anti-CD39 antibody mAb5
B6: mAb6 (antibody, human IgG1, V domains shown)
VH: B1 VH
VL: B1 VL with I48V
notes: Produced as Fc silent recombinant human IgG1 with heavy chain N297Q (Kabat EU numbering) and huCk constant domain; also called anti-CD39 antibody mAb6
B7: mAb1 (antibody, human IgG1, V domains shown)
VH: B1 VH with K43Q, K46E
VL: B1 VL
notes: Produced as Fc silent recombinant human IgG1 with heavy chain N297Q (Kabat EU numbering) and huCk constant domain; also called anti-CD39 antibody mAb1

This test has as its target recombinant human CD39 (vascular isoform) (human). As to the kind of experiment: ELISA, recombinant human CD39 coated. On the technique in general: In an ELISA, binding on a coated surface is turned into a signal by an enzyme label.
On to B1, for which the binding entry was “binds”.

On to B2, for which the binding entry is recorded as “binds”.

On to B3, for which the binding result is listed as “binds”.

B4: the binding entry is reported as “binds”.

In the case of B5, the binding entry is recorded as “binds”.

On to B6, for which the binding entry was “binds”.

Take B7: the binding entry is listed as “binds”.
